Experimental data from doi:10.1101/2022.12.14.520376.
No constants are given. Whether binding was seen depends on the method and setting. In cells and extracts the contact can be indirect. Some binding calls cover weakened binding; strength is not graded here.

By UniProt entry, the sequences of proteins in these tests, tags left out. Residues count along the entry.
UniProt P10721, residues 26-976: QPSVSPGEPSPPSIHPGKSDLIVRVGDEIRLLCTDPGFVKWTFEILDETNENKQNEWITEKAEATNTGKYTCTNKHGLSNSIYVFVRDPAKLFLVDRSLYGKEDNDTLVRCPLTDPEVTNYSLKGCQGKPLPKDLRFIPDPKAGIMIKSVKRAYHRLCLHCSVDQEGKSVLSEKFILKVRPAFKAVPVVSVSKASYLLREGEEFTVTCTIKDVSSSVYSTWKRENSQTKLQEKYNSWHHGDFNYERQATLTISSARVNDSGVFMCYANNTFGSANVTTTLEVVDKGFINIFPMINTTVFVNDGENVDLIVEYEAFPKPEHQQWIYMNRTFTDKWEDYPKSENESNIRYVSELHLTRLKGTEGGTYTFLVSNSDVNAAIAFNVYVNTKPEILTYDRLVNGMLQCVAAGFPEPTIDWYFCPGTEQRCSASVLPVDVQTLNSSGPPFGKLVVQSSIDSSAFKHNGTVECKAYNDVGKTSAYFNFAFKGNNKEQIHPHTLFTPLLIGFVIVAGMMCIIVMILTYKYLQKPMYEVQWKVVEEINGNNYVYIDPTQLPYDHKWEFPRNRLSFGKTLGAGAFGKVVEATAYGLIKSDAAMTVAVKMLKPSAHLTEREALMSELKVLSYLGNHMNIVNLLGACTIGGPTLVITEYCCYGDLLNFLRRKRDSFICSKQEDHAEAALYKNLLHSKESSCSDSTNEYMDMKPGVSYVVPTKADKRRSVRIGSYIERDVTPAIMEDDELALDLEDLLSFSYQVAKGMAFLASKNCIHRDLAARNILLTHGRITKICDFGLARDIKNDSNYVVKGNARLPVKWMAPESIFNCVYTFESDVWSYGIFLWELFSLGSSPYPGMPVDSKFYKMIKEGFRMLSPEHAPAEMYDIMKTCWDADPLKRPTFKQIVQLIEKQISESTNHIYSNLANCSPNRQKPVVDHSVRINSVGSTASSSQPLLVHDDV
UniProt P29279, residues 27-349: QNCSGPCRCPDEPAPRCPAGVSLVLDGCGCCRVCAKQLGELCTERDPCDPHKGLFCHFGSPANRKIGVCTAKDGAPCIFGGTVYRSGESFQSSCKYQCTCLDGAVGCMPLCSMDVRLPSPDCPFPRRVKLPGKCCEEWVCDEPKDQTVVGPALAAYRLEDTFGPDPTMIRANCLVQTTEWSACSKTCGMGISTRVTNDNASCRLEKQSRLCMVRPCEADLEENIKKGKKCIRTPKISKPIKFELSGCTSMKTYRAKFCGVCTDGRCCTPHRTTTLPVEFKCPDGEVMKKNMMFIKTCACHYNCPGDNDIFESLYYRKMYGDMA

Target: Flag-KIT (human) (UniProt P10721)
Experiment: co-IP

binding: binds
Substance: HA-CTGF (connective tissue growth factor) (from UniProt P29279 27-349)
